Measured values: PubChem BioAssay AID1439 (NMMLSC, 2008)
Among all 220,000 compounds or so, about 770 (0.35%) were called active. The shares of active, inactive and inconclusive entries below differ from those in the screen. No stated cut-off is given here; in the data, active means binding response below about 49% or above about 150%; inconclusive means no clear call, values can overlap the other calls; inactive means in between.

Amino acid sequences for entries named in this document (tags omitted).
UniProt P09471, whole entry, looked up: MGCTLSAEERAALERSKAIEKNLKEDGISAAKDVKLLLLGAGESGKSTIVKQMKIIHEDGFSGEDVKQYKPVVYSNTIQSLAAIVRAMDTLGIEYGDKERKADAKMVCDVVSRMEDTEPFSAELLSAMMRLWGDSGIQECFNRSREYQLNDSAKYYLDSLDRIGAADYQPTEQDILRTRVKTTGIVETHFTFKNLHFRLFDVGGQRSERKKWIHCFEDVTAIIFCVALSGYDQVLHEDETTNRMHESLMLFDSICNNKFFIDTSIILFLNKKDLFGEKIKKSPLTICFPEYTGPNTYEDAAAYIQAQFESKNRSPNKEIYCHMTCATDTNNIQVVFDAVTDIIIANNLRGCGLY

Molecular target: Guanine nucleotide-binding protein G(o) subunit alpha (Homo sapiens) (UniProt P09471)
Experiment: RGS7-Galphao binding modulators, primary screen, biochemical, multiplexed bead flow cytometry (AID 1439);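 further: fluorescent Galphao held in activated GDP-AlF4 state binding bead-coupled RGS7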
Conditions: at 10 µM, actives lie on both sides

Structure (SMILES) | binding response (% of control)
O=C(COC(=O)/C=C/c1ccc(Cl)cc1)Nc1ccccc1 | inconclusive: 77.7%
COc1ccc(C(C(=O)NC(C)(C)C)N(C(=O)Cn2nnc3ccccc32)c2cccc(C(C)=O)c2)cc1O (stereo not given) | inconclusive: 87.8%
O=C(CNC(=S)N(CCCN1CCOCC1)Cc1cccs1)NC1CCCC1 | inconclusive: 108%
NNc1ccc2nncn2n1 | inconclusive: 13.1%
CCOC(=O)c1n[nH]n(-c2cc(Cl)cc(Cl)c2)c1=O | inconclusive: 94%
COc1ccc(-c2nnn(CC(=O)N(CC3CCCO3)C(C(=O)NC(C)(C)C)c3ccco3)n2)cc1OC (stereo not given) | inactive: 121%
CC/C=C/C(=O)N1CC2(CC(c3cccc(NC(=O)CC(c4ccccc4)c4ccccc4)c3)=NO2)C[C@@H]1C(N)=O (stereo not given in full) | inconclusive: 110%
COc1ccc(C)cc1NC(=O)C(OC(=O)C1CC1)c1ccccc1 (stereo not given) | inconclusive: 98.5%
COc1ccc(CNC(=O)C2CC(c3ccc(C(F)(F)F)cc3)=NO2)cc1 (stereo not given) | inconclusive: 92.3%
CC(C)(CN1CCN(c2ccccc2)CC1)NS(=O)(=O)c1ccccc1 | inconclusive: 246%
Cc1cc(C)cc(N(CC(=O)NCc2ccco2)S(=O)(=O)c2c(C)noc2C)c1 | inactive: 96.4%
Cc1nc2ccccn2c1C(=O)Nc1ccc(Cl)cc1 | inconclusive: 99.6%
CC(C)(C)c1ccc(/C=N/N2CCN(c3ccccn3)CC2)cc1 | inconclusive: -845%
Cc1ccccc1-c1nc(SCc2ccccn2)c2c(=O)n(C)c(=O)n(C)c2n1 | inconclusive: 71.4%
CC(=O)n1cc([C@@H]2C=C(C(=O)NCc3ccccc3)O[C@H](OCc3ccc(CO)cc3)C2)c2ccccc21 | inconclusive: 93.7%
O=C(c1cccs1)N1CCN(CCCc2ccccc2)CC1 | inactive: 100%
Cc1cc(CSC(=N)N)c(CSC(=N)N)cc1C | inconclusive: 97.3%
CN1CC(C(=O)O)Cc2c1ccc1ccccc21 (stereo not given) | inconclusive: 254%
O=C(NC1CC1)C1=C[C@@H](c2ccccc2)C[C@@H](OCc2ccc(CO)cc2)O1 | inconclusive: 117%
COC(=O)c1cccn(CC(=O)c2ccc(Cl)cc2)c1=O | inactive: 86.3%
C=CCn1c(SCC(=O)NNC(=O)Nc2cccc(Cl)c2)nnc1-c1ccccc1 | inconclusive: 57.4%
CC1CCCCC1NC(=O)c1cc2ccccc2o1 (stereo not given) | inactive: 100%
CN(C)C(=O)CN1CCN(Cc2nc(CC3CC3)no2)CC1 | inconclusive: 106%
c1ccc2c(Nc3ccc4c(c3)OCCO4)c3c(nc2c1)CCC3 | inconclusive: 98.5%
Cc1nc2c(-c3ccc(F)cc3)c(C)nn2c(C)c1CCC(=O)Nc1ccc(F)cc1F | inconclusive: 94.5%
CC(=O)Nc1ccccc1C(F)(F)F | inconclusive: 530%
CCn1nc([N+](=O)[O-])c2c(-c3nc4ccccc4o3)c(N)n(CCCOC)c2c1=O | inactive: 95.3%
O=C(CNC(=O)C1COc2ccccc2O1)N/N=C\c1ccc(Cl)cc1 (stereo not given) | inconclusive: 99.9%

Structure (SMILES) | binding response (% of control)
CCN(CC)C(=O)c1[nH]cnc1C(=O)Nc1ccc(OC)cc1 | inconclusive: 88.5%
O=C(NCc1ccccn1)C(=O)N/N=C/c1ccccc1O | inconclusive: 87.2%
O=C(O)c1cccnc1Sc1ccc(Cl)cc1 | inconclusive: 105%
O=C(Nc1ccc(OCc2ccccc2)cc1)Nc1ccccc1C(=O)NCCCN1CCOCC1 | inconclusive: 82.7%
CN1CCN(/N=C/c2ccc(C#N)cc2)CC1 | inconclusive: 75%
CC(=O)N/N=C/c1cc2c(cc1[N+](=O)[O-])OCO2 | inconclusive: 93.3%
C(=C\c1ccccn1)/c1ccccn1 | inconclusive: 158%
COc1ccc(S(=O)(=O)Nc2ccc(NC(C)=O)cc2)cc1[N+](=O)[O-] | inactive: 97.7%
C=C(C)C(=O)N1CC2(CC(c3cccc(NC(=O)/C=C\C=C/C)c3)=NO2)C[C@H]1C(N)=O (stereo not given in full) | inconclusive: 92.1%
CCC1=C(OC(=O)N(CC)CC)N2C(=O)OC(=NCCc3c[nH]c4ccccc34)[C@]2(Cc2ccccc2)[C@H]2C1=CC[C@H]1C(=O)N(C)C(=O)[C@H]12 | inconclusive: 120%
COC(=O)c1ccc(NC(=S)NCCc2ccc(OC)cc2)cc1 | inconclusive: 108%
C#CCOCCOCCOCCNc1nc(N2CCN(C(=O)[C@H](CCC(=O)O)n3cc(C(N)Cc4ccc(O)cc4)nn3)CC2)nc(N2CCN(C(=O)[C@H](CCCCN)n3cc(C(N)[C@H](C)CC)nn3)CC2)n1 (stereo not given in full) | inconclusive: 106%
COc1cc(NC(=O)C/C(C)=N/NC(=O)C(OC)c2ccccc2)c(OC)cc1Cl (stereo not given) | inactive: 112%
C=CCNC(=S)N/N=C/c1cn(C)c2ccccc12 | inconclusive: 83.8%
Cc1nc2c3c(sc2c(=O)[nH]1)NC(=O)CC3c1ccccc1Cl (stereo not given) | inconclusive: 113%
CCOC(=O)CNC(=O)c1ccc(SCC)cc1 | inconclusive: 112%
CCSc1cc(Cl)nc(N)n1 | inconclusive: 75.5%
O=C(CSc1nnc2c(n1)[nH]c1ccccc12)Nc1cccc(S(=O)(=O)N2CCOCC2)c1 | inconclusive: 108%
CC(C)(C)C(=O)NC1(C(F)(F)F)NC(=O)N(Cc2ccccc2)C1=O (stereo not given) | inconclusive: 94.6%
N#C[C@H]1[C@H](c2ccccc2)[C@](C#N)(C(=O)c2ccccc2)[C@@H]2C=Cc3ccccc3N21 | inactive: 99.2%
CCCC1C(=O)N(Cc2ccccc2)C(=O)CC1C (stereo not given) | inconclusive: 89.8%
CC(=O)OCc1cc(-c2nc3ccccc3[nH]c2=O)nn1-c1ccc(Cl)cc1 | inconclusive: 66.1%
CC(C)N=C1NN=C(c2cccs2)C(CC(=O)O)S1 (stereo not given) | inconclusive: 117%
CCOC(=O)C1CCN(c2c(NCCC(C)C)c(=O)c2=O)CC1 | inconclusive: 117%
O=[N+]([O-])c1cncc([N+](=O)[O-])c1Nc1ccccc1Cl | inconclusive: 79.7%
O=C(Nc1ccc(F)cc1)Nc1csc2ccccc12 | inconclusive: 97.1%
Cc1nn(-c2ccccc2)c(=O)c2noc(C)c12 | inconclusive: 91.8%

5 of these compounds in a different format.
Structure (SMILES)	binding response (% of control)
C=C(C)C(=O)N1CC2(CC(c3cccc(NC(=O)/C=C\C=C/C)c3)=NO2)C[C@H]1C(N)=O (stereo not given in full)	inconclusive: 92.1%
CCC1=C(OC(=O)N(CC)CC)N2C(=O)OC(=NCCc3c[nH]c4ccccc34)[C@]2(Cc2ccccc2)[C@H]2C1=CC[C@H]1C(=O)N(C)C(=O)[C@H]12	inconclusive: 120%
COC(=O)c1ccc(NC(=S)NCCc2ccc(OC)cc2)cc1	inconclusive: 108%
C#CCOCCOCCOCCNc1nc(N2CCN(C(=O)[C@H](CCC(=O)O)n3cc(C(N)Cc4ccc(O)cc4)nn3)CC2)nc(N2CCN(C(=O)[C@H](CCCCN)n3cc(C(N)[C@H](C)CC)nn3)CC2)n1 (stereo not given in full)	inconclusive: 106%
COc1cc(NC(=O)C/C(C)=N/NC(=O)C(OC)c2ccccc2)c(OC)cc1Cl (stereo not given)	inactive: 112%
